The assay deals with BDF1 mice, B16 melanoma ip, median survival T/C. Description: NCI In Vivo Anticancer Drug Screen. Data for tumor model B16 Melanoma (intraperitoneal) in B6D2F1 (BDF1) mice. The conditions noted are these: T/C endpoint: median survival time, higher T/C = longer survival. The essentials: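 Compounds were tested in mice carrying transplantable tumors. Survival or tumor size was recorded, and each value is the treated-group measurement (T) divided by that of the vehicle-treated control group (C).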

[1] abbreviates: dose: 100.0 mg/kg/injection, schedule: Q01DX009 (ip), vehicle: saline with Tween-80.
[2] abbreviates: dose: 12.5 mg/kg/injection, schedule: Q01DX009 (ip), vehicle: saline with Tween-80.
The mark [3] stands for this setting: dose: 50.0 mg/kg/injection, schedule: Q01DX009 (ip), vehicle: saline with Tween-80.
The mark [4] stands for this setting: dose: 200.0 mg/kg/injection, schedule: Q01DX009 (ip), vehicle: saline with Tween-80.
Setting [5] is: dose: 400.0 mg/kg/injection, schedule: Q01DX009 (ip), vehicle: Klucel (hydroxypropylcellulose) (HPC).
[6] abbreviates: dose: 200.0 mg/kg/injection, schedule: Q01DX009 (ip), vehicle: Klucel (hydroxypropylcellulose) (HPC).
Where [7] appears, read: dose: 25.0 mg/kg/injection, schedule: Q01DX009 (ip), vehicle: saline with Tween-80.
The mark [8] stands for this setting: dose: 400.0 mg/kg/injection, schedule: Q01DX009 (ip), vehicle: saline with Tween-80.

The list is a part of this screen's results and no random one: it is rich in T/C values a quarter to a half above the control, in often repeated tests (any T/C) and in doses without a T/C. Other doses and runs of a compound stand elsewhere. T/C is the treated group as % of the vehicle group. Some doses have a count of surviving animals in place of a T/C: the source files T/C as zero there, which appears to mark a toxic dose or a test without result, not a measured value. Some survivor counts are full or nearly so, which does not show that the dose was tolerated: survival well below the control is almost never listed, so the zero probably covers shortened survival too. Counts of survivors are from the toxicity check (mostly the fifth day) where no day follows; animals may have died later. Schedule codes are those of the source, taken here to give the interval after Q, in days (D) or hours (H), and the number of doses after X. For survival time, the PubChem record calls one and a half times the control and up active, and a quarter to a half above the control has no call in these data; cut-offs in other NCI protocols can differ. Some entries hold several experiments; the values are given in rising order. Some T/C values carry the count of animals alive at the toxicity check (mostly the fifth day); without a count, all were alive then.

Regarding `CC[C@@]1(O)C[C@H](OC2CC(N(C)C)C(O)C(C)O2)c2c(O)c3c(c(O)c2[C@H]1OC1CC(N(C)C)C(O)C(C)O1)C(=O)c1cccc(O)c1C3=O` (stereo partly drawn), the survivor count runs as follows: (dose: 125.0 micrograms/kg/injection, schedule: Q01DX009 (ip), vehicle: Klucel (hydroxypropylcellulose) (HPC)) 10 of 10; (dose: 250.0 micrograms/kg/injection, schedule: Q01DX009 (ip), vehicle: Klucel (hydroxypropylcellulose) (HPC)) 10 of 10.

As to `C/C(Cc1ccccc1)=N\[N+](C)(C)C`, the survivor count (dose: 300.0 mg/kg/injection, schedule: Q04DX003 (ip), vehicle: saline) was 1 of 10.

`CC(C)C(Br)C(=O)NCC(=O)NCC(=O)O` (stereo not drawn): under setting [1], the survivor count is on record as 10 of 10.

Turning to `COC(CCC(C)C1OC23CC(OC(=O)CC(C(C)O)OC(=O)CC(O)(O2)C(C)CC3(C)C)C1C)c1cccc(O)c1` (stereo not drawn), the T/C is, setting by setting: (dose: 25.0 micrograms/kg/injection, schedule: Q01DX009 (ip), vehicle: other) 146 % of control; (dose: 50.0 micrograms/kg/injection, schedule: Q01DX009 (ip), vehicle: other) 142 % of control; (dose: 100.0 micrograms/kg/injection, schedule: Q01DX009 (ip), vehicle: other) 142 % of control [9 of 10 alive].

As for `Cc1ccccc1CN1CCN(CCOC(c2ccccc2)c2ccccc2Cl)CC1` (stereo not drawn), the survivor count is, setting by setting: (dose: 6.25 mg/kg/injection, schedule: Q01DX009 (ip), vehicle: Klucel (hydroxypropylcellulose) (HPC)) 10 of 10; (dose: 50.0 mg/kg/injection, schedule: Q01DX009 (ip), vehicle: Klucel (hydroxypropylcellulose) (HPC)) 10 of 10.

Consider `[O-]c1cc2c3c(c1)c1cc4c(cc1c[n+]3C=C2)OCO4`, for which the survivor count (dose: 100.0 mg/kg/injection, schedule: Q01DX009 (ip), vehicle: water) is 9 of 10.

`CCCCCCCCCCCCCCCCCC(=O)Nc1ccn(C2OC(CO)C(O)C2O)c(=O)n1` (stereo not drawn): the T/C runs as follows: (dose: 6.25 mg/kg/injection, schedule: Q01DX009 (ip), vehicle: saline with Tween-80) 125 and 133 % of control; under setting [2], 138 % of control. In addition, the survivor count reads like this: under setting [3], 10 of 10; under setting [1], 10 of 10; under setting [4], 10 of 10.

Regarding `CC1=C(/C=C/C(C)=C/C=C/C(C)=C/C(=O)O)C(C)(C)CCC1`, the survivor count reads like this: (dose: 2.0 mg/kg/injection, schedule: Q01DX009 (ip), vehicle: saline with Tween-80) 10 of 10; (dose: 8.0 mg/kg/injection, schedule: Q01DX009 (ip), vehicle: saline with Tween-80) 10 of 10; (dose: 16.0 mg/kg/injection, schedule: Q01DX005 (ip), vehicle: saline with Tween-80) 10 of 10; (dose: 32.0 mg/kg/injection, schedule: Q01DX005 (ip), vehicle: saline with Tween-80) 10 of 10; (dose: 32.0 mg/kg/injection, schedule: Q01DX009 (ip), vehicle: saline with Tween-80) 10 of 10; (dose: 64.0 mg/kg/injection, schedule: Q01DX005 (ip), vehicle: saline with Tween-80) 10 of 10. The survivor count is, setting by setting: (dose: 64.0 mg/kg/injection, schedule: Q01DX009 (ip), vehicle: saline with Tween-80) 10 of 10; (dose: 128.0 mg/kg/injection, schedule: Q01DX005 (ip), vehicle: saline with Tween-80) 10 of 10; (dose: 128.0 mg/kg/injection, schedule: Q01DX009 (ip), vehicle: saline with Tween-80) 10 of 10. Besides, where the note is “dose: 4.0 mg/kg/injection, schedule: Q01DX009 (ip), vehicle: saline with Tween-80”, the T/C is 90, 91, 94, 110 % of control.

As to `Cc1ccc(Cl)cc1NC(=O)c1ccccc1Cl`, the survivor count under setting [5] is 10 of 10.

For the compound `CC1CCCN(c2ccc([N+](=O)[O-])cc2[N+](=O)[O-])C1` (stereo not drawn), under setting [6], the survivor count was 9 of 10.

Consider `COc1cccc2c1C(=O)c1c(O)c3c(c(O)c1C2=O)C[C@@](O)(C(C)O)C[C@@H]3OC1CC(N2CCC(OC)CC2)C(O)C(C)O1` (stereo partly drawn), for which the T/C is, setting by setting: (dose: 3.12 mg/kg/injection, schedule: Q01DX001 (ip), vehicle: water) 131 % of control; (dose: 6.25 mg/kg/injection, schedule: Q01DX001 (ip), vehicle: water) 146 % of control; (dose: 12.5 mg/kg/injection, schedule: Q01DX001 (ip), vehicle: water) 132 % of control. For the same compound, the survivor count (dose: 50.0 mg/kg/injection, schedule: Q01DX001 (ip), vehicle: water) was 0 of 10.

For the compound `C/C=C(\C)C(=O)OC1C(C)C2(O)C(C=C(CO)CC3(O)C(=O)C(C)=CC32)C2C(C)(C)C12OC(=O)CCCCCCCCC` (stereo not drawn), the survivor count (dose: 0.5 mg/kg/injection, schedule: Q01DX009 (ip), vehicle: saline + alcohol) is 1 of 10.

As to `C(C#CCN1CCOCC1)#CCN1CCOCC1`, the survivor count under setting [7] was 7 of 10.

Consider `Cc1ccc(N2CSC(=S)N(c3ccc(C)cc3)C2)cc1`, for which the survivor count under setting [5] is 10 of 10.

Take `O=C1C=CC(=O)N1c1ccc(Cl)cc1`: the survivor count is, setting by setting: (dose: 2.5 mg/kg/injection, schedule: Q01DX009 (ip), vehicle: Klucel (hydroxypropylcellulose) (HPC)) 10 of 10; (dose: 5.0 mg/kg/injection, schedule: Q01DX009 (ip), vehicle: Klucel (hydroxypropylcellulose) (HPC)) 10 of 10; (dose: 10.0 mg/kg/injection, schedule: Q01DX009 (ip), vehicle: Klucel (hydroxypropylcellulose) (HPC)) 10 of 10; (dose: 20.0 mg/kg/injection, schedule: Q01DX009 (ip), vehicle: Klucel (hydroxypropylcellulose) (HPC)) 3 of 10; (dose: 40.0 mg/kg/injection, schedule: Q01DX009 (ip), vehicle: Klucel (hydroxypropylcellulose) (HPC)) 0 of 10.

With `NC(=O)c1cc(N2CC2)c([N+](=O)[O-])cc1[N+](=O)[O-]`, the survivor count (dose: 40.0 mg/kg/injection, schedule: Q01DX009 (ip), vehicle: saline) is 6 of 6.

Consider `N/N=C(\N)c1nn(C2OC(CO)C(O)C2O)c2ncnc(N)c12` (stereo not drawn), for which the survivor count (dose: 320.0 mg/kg/injection, schedule: Q01DX005 (ip), vehicle: saline) is on record as 0 of 4.

Take `COc1ccc(C(=O)C(=O)c2ccc(OC)c(OC)c2)cc1OC`: the survivor count is, setting by setting: under setting [2], 10 of 10; under setting [7], 10 of 10; under setting [3], 10 of 10; under setting [1], 10 of 10; under setting [4], 10 of 10; under setting [8], 10 of 10.

For `CCN(CC)CCOC(=O)C(c1ccccc1)C1CCCCC1` (stereo not drawn), the survivor count is, setting by setting: (dose: 200.0 mg/kg/injection, schedule: Q01DX009 (ip), vehicle: saline) 1 of 10; (dose: 400.0 mg/kg/injection, schedule: Q01DX009 (ip), vehicle: saline) 0 of 10.

Consider `Cc1ccccc1N=Nc1c(N)ccc2ccccc12`, for which the survivor count runs as follows: (dose: 100.0 mg/kg/injection, schedule: Q01DX009 (ip), vehicle: Klucel (hydroxypropylcellulose) (HPC)) 10 of 10; under setting [6], 10 of 10; under setting [5], 10 of 10.

For the compound `Cc1ccc(S(=O)(=O)NC(=S)S)cc1`, the T/C is 129 % of control under setting [2], 144 % of control under setting [3] and 131 % of control under setting [8]. Also, the survivor count under setting [8] is on record as 2 of 9.

As for `COC(=O)c1[nH]cnc1/N=N/N(C)C`, the T/C (dose: 7.5 mg/kg/injection, schedule: Q01DX009 (ip), vehicle: saline) is 126 % of control. For the same compound, the survivor count by setting is: (dose: 30.0 mg/kg/injection, schedule: Q01DX009 (ip), vehicle: saline) 6 of 6; (dose: 60.0 mg/kg/injection, schedule: Q01DX009 (ip), vehicle: saline) 6 of 6.

For `COc1cc2c3c(c1)-c1nc4ccccc4cc1CN3CCC2`, under “dose: 400.0 mg/kg/injection, schedule: Q04DX003 (ip), vehicle: alcohol”, the survivor count is 1 of 10.

On to `C[CH2][Sn]([F])([CH2]C)[CH2]C`, for which the survivor count (dose: 6.0 mg/kg/injection, schedule: Q01DX009 (ip), vehicle: saline with Tween-80) is 7 of 10.

As for `Cc1cc(=O)[nH]c2ccc(-c3ccc4[nH]c(=O)cc(C)c4c3)cc12`, under setting [5], the survivor count is 9 of 10.

On to `O=C(Nc1ccc(F)cc1)Nc1nccs1`, for which the survivor count under setting [5] is recorded as 6 of 10.

(Values after PubChem BioAssay AID192 (DTP/NCI, 2004).)
